Values from PubChem BioAssay AID1259424 (University of Nebraska Medical Center, 2018).
This is an unselected part of about 14,000 reagents tested. 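Higher correlation or smaller distance means closer resemblance to KSR1 loss; control wells, including KSR1 knockdowns, recur on many plates.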 Further read-outs or replicates are left out here. The record does not give: the time to read-out.

- Purpose: 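Find knockdowns that reproduce the expression shifts seen after KSR1 loss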 (primary screen)
- Cells: human HCT116 colon cancer cells
- Reagent: siRNA pool against human genes, 50 nM
- Measurement: 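Log2 levels of six mRNAs (branched-DNA multiplex), adjusted by two reference genes and the non-targeting median, then scored against the average KSR1 knockdown pattern as Pearson r and euclidean distance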
- Reading the numbers: mean correlation with KSR1 profile: higher = expression change more like KSR1 knockdown

Knock-down of PXMP4 [SID363997932] resulted in: mean correlation with KSR1 profile 0.309.
Silencing of SHROOM2 [SID363992874] gave: mean correlation with KSR1 profile -0.349.
For MZB1 [SID364000120], the entry reads mean correlation with KSR1 profile -0.394.
Against LORICRIN [SID363991758], the values are mean correlation with KSR1 profile -0.0272.
AKR1B1 [SID363992853] scored mean correlation with KSR1 profile -0.531.
Against GAGE5 [SID363992735], the entry reads mean correlation with KSR1 profile 0.00581.
Silencing of TLN2 [SID363999277] resulted in: mean correlation with KSR1 profile 0.243.
With knock-down of LRRC7 [SID364001832] the results were mean correlation with KSR1 profile -0.131.
With knock-down of CYP2C19 [SID363992060] the results were mean correlation with KSR1 profile -0.644.
CFAP69 [SID364003059] gave mean correlation with KSR1 profile 0.77.
For DAP [SID363995378], the entry reads mean correlation with KSR1 profile -0.53.
After knock-down of FLT4 [SID363993230] the results were mean correlation with KSR1 profile 0.282.
Silencing of KLKB1 [SID363992177] resulted in: mean correlation with KSR1 profile 0.214.
After knock-down of CXXC4 [SID364003317], the screen gave mean correlation with KSR1 profile 0.703.
Depletion of RBL2 [SID363996506] came out at: mean correlation with KSR1 profile 0.179.
Knock-down of INPP1 [SID363993395] resulted in: mean correlation with KSR1 profile 0.583.
After knock-down of SFTPA2B (retired record) [SID363997679], the screen gave mean correlation with KSR1 profile -0.0268.
Knock-down of WDFY3 [SID363999241] came out at: mean correlation with KSR1 profile -0.0956.
With knock-down of HTATIP2 [SID363997221], the record shows mean correlation with KSR1 profile 0.87.
GRM2 [SID363992126] gave mean correlation with KSR1 profile 0.81.
Knock-down of KMT5B [SID363999807] came out at: mean correlation with KSR1 profile -0.508.
For H4C13 [SID363994629], the values are mean correlation with KSR1 profile 0.692.
After knock-down of HSPG2 [SID363996429] the results were mean correlation with KSR1 profile 0.349.
KLF16 [SID364003697] scored mean correlation with KSR1 profile 0.737.
CCKAR [SID363992027] gave mean correlation with KSR1 profile 0.276.
Depletion of ATP2C2 [SID363999151] gave: mean correlation with KSR1 profile 0.37.
Depletion of SNAPC2 [SID363994228] came out at: mean correlation with KSR1 profile 0.149.
Against SEMA6D [SID364001870], the entry reads mean correlation with KSR1 profile 0.622.
With knock-down of BTN2A2 [SID363997732] the results were mean correlation with KSR1 profile 0.104.
After knock-down of TMEM161A [SID364000548], the record shows mean correlation with KSR1 profile 0.0625.
Silencing of SLC9A5 [SID363995564] resulted in: mean correlation with KSR1 profile -0.718.
Depletion of HTR5A [SID364002676] gave: mean correlation with KSR1 profile 0.845.
Depletion of SH3YL1 [SID363999640] gave: mean correlation with KSR1 profile 0.376.
Depletion of IFIT5 [SID363998304] came out at: mean correlation with KSR1 profile 0.348.
Against PDE8B [SID363994788], the values are mean correlation with KSR1 profile -0.841.
After knock-down of NCOA4 [SID363996343], the record shows mean correlation with KSR1 profile 0.361.
